Amino acid sequences for entries named in this document (tags omitted).
UniProt Q39017: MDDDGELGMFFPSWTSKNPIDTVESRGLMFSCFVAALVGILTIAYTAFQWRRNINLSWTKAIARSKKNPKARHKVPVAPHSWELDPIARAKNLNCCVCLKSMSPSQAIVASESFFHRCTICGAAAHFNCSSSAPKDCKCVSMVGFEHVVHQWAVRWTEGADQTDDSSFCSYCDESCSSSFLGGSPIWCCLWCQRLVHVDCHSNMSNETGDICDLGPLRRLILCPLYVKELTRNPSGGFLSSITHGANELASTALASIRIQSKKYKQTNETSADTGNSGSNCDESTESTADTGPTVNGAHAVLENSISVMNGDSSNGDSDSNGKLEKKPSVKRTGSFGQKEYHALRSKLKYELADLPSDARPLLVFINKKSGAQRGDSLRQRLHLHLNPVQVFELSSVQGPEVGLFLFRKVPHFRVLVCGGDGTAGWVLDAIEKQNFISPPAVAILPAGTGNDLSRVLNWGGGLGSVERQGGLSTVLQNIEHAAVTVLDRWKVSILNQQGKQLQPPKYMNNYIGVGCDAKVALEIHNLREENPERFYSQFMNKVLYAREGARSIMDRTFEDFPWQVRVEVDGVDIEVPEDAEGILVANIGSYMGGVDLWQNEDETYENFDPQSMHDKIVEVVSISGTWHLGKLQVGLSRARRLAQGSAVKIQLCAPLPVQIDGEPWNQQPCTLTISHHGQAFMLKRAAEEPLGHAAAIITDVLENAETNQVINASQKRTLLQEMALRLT

According to article doi:10.1101/2024.01.16.575708:

Target: T1, SYT1 used as bait in the TAP-TAG screening (Arabidopsis thaliana) (UniProt Q9SKR2)
T1 sequence: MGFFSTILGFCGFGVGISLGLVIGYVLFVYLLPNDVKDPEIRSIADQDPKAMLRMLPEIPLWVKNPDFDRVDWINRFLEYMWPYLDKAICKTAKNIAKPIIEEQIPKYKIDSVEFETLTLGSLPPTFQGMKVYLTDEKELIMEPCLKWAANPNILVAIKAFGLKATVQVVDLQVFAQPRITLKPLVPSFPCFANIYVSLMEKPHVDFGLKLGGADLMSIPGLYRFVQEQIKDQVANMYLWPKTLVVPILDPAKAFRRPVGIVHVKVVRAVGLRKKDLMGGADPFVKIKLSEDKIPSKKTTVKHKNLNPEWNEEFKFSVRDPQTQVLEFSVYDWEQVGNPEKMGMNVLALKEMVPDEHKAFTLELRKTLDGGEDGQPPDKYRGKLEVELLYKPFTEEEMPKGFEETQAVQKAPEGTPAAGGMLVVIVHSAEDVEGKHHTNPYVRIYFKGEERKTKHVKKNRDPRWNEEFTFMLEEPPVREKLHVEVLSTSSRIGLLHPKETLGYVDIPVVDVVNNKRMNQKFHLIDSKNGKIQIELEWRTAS
Assay: affinity purification with mass spectrometry

binding: binds
Substance: DGK1 identified in the TAP-TAG screening (from UniProt Q39017 1-728)

These are yes or no findings as the source states them, for the method shown. In cells and extracts the contact can be indirect. These calls come from enrichment with a bait or labelling near it, and not all partners need be listed. Tags and fused reporters may be left off the sequences shown.
